The campaign covered roughly 52,000 sequences. About 210 (0.4%) were called active.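 How the source made its calls: active means gene whose silencing raises cell survival under the drug, median off-target-corrected z-score across its silencing RNAs 2 or more; inactive means the rest.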 This is one part of the list.
test: Resistance to Poly (ADP-Ribose) Polymerase inhibitor: Gene Identification via Genome-wide siRNA Screen; conditions: mouse BRCA2 R2336H ES cells, olaparib, CellTiter-Glo viability; active compounds read high
Excerpt: The role of Poly (ADP-Ribose) Polymerase (PARP) proteins in DNA repair has been elegantly utilized for the synthetic lethality-based treatment of BRCA-deficient tumors by PARP inhibitors. PARP inhibitors are now being used for treatment of BRCA-deficient breast and ovarian cancers. […] While several mechanisms of drug resistance have been identified, majority of these tumors develop drug resistance due to unknown causes. To identified novel regulators of chemo-resistance in BRCA2-mutated cells, we performed a genome wide siRNA library screen. We have found ES cells expressing a hypomorphic allele of BRCA2 to be hypersensitive to PAPP inhibitors (such as olaparib). We used ES cells expressing a mutant allele of BRCA2 that has a single amino acid substitution at position 2336 (arginine to histidine, R2336H). The screen was conducted using an Ambion (Thermo) Silencer Mouse Genome siRNA collection. The library targets 17,575 mouse genes with 3 siRNAs per gene. TET2 (E130014J05Rik) was identified as a top candidate.
Transfections were performed in 384 well plates (Corning 3707). Plates were coated with 0.1% gelatin in H2O overnight at ambient temperature. Gelatin solution was aspirated (BioTek EL406) and siRNAs were printed using a Bravo VPrep liquid handler integrated within a BioCel automation platform (Agilent). Cell viability was measured using CellTiter Glo (Promega). For transfections, […] of serum free media containing Lipofectamine RNAiMax […] was added to wells containing siRNA (0.8pmol). Lipid and siRNA were allowed to complex for 45 min at ambient temperature before addition of 1000 cells in DMEM, 30% FBS to yield final transfection mixtures containing 20 nM siRNA in DMEM, 15% FBS. PARPi (olaparib, AZD2281) was added 48 h post-transfection (500 nM) and viability (CellTiter Glo, Promega) was assayed 72 h later on a PerkinElmer Envision 2104 Multilabel plate reader. Ambion Silencer Select Negative Control #2 was incorporated on all screening plates (16 wells) and the median negative control value on each plate was used for normalization. An siRNA targeting Trp53 was used as a positive control. This control yielded a median protective effect of ~1.9 fold versus negative control throughout the screen. The median absolute deviation (MAD) based z-score was calculated for each siRNA. Genes were then ranked by taking the median value for all siRNAs tested against a given gene. Scores were also adjusted for seed-based off-target effects to help deprioritize likely false positives.

Sequence	z-score
GGCGAGAAAUUCUUCACAUTT against Plxna3	inactive: -0.643
GCAGUGUUGAGACCAACAUTT against C1qtnf3	inactive: -0.0384
GGAAGAGAUAAGAAGAGAGTT against Faim	inactive: -1.67
GGAUAGAGUUAAUGAAAAGTT against 1200014M14Rik	inactive: 0.822
GGCCAUCUUUCUAUACAAATT against Bcl10	inactive: 0.0528
GGAAGAGCACAUCAUUGCATT against LOC212871	inactive: 0.17
GGUGCCAGAAGAUUUACGATT against Fmr1	inactive: 1.38
CCUACGUGCUGUGAGAUUCTT against Ccl25	inactive: 0.694
GGCCAAAGGCAUCAGGCAUTT against 1700020F09Rik	inactive: 0.202
GGGCCAGUCAUUGAAGAUUTT against U2af2	inactive: -1.94
GGUGUACAACAUCAGCGACTT against Fads1	inactive: 1.06
GCCCGUGUCAUCAUUUUCUTT against Doxl2	inactive: -0.00358
CGAGGUGACCUACAAGAUUTT against AI481750	inactive: 0.982
GGUGGAGUUUCUCAAAAGCTT against Kcnc3	inactive: -1.79
GGCAUCCAAGCAAAAUGGCTT against Eng	inactive: 2.09
GGUUAUUCAAAAAUGCAACTT against D12Wsu95e	inactive: 0.66
CGGGUCCAGCCAAUUGCAUTT against Plxnc1	inactive: 0.134
GCUUGGGUCAUAGGGAUGATT against Olfr1288	inactive: -0.594
GACAUUUCGACCUUCCAGUTT against 2310002F18Rik	inactive: 0.553
CACUCUUGAUACAAAUGAGTT against Ifna6T	inactive: 0.264
GGAAUUGUCAGGUCUUGAATT against 0610009B10Rik	inactive: -2.29
GCAGGACUUGACAAUAGUCTT against Itgb1bp2	inactive: 0.487
GGCAACUUUAUACACAAACTT against V1rc5	inactive: 0.506
GGAAGAAUGUGAUGACUCATT against Zfp11	inactive: 0.172
GCUGGCUGAAACAUCUACCTT against Trappc1	inactive: 0.0507
GGGAGAAGAAUUUGAACAGTT against Ak1	inactive: -1.68

Sequence	z-score
GGUAGAUUUGGAAUAAGCCTT against 5330440M15Rik	inactive: -0.743
GGUUAAAGAAGAUAAUCAGTT against Ccdc2	inactive: 0.756
GGCUGGAGUAGAAGAACUGTT against Hsbp1	inactive: -1.87
CCUAUGAAUCUUACAGGACTT against Zfp422-rs1	inactive: -0.207
CCCAAUGGCACUCUAUAUCTT against 2900042E01Rik	inactive: -0.436
GCAUCAUGAUACGAAGCAGTT against 2310047I15Rik	inactive: -0.79
GGUGGAACACAUAUUUUAATT against Tbc1d13	inactive: 1.98
GGUACAUAUCCAUUCACAGTT against Cnr1	inactive: 1.56
CGUUUGGGAUCGAAAGUCATT against Tbl1x	inactive: -1.67
CGGAUCAUCAUGUACACUGTT against Tpsg1	inactive: 1.86
GGACUGACUGGCUUCAUUGTT against Arl6ip2	inactive: -2.02
GGCCAACUGGAGAUAGAUATT against 1500001M20Rik	inactive: 0.202
CCAACUUCGAUGCUGAGAGTT against Anxa2	inactive: -0.64
GCCUAAGGAGUUUCUGAUATT against 2410015A16Rik	inactive: -0.0616
GGAGAACUUCAAAACUUUUTT against Tbx1	inactive: -0.104
GCCUCAAUGGCACUCAAAUTT against Mdc1	inactive: 0.141
GGCAUGUCGAUCUGACCUUTT against Kcnc1	inactive: 0.224
GGGAAAAUCCACUUUUAAGTT against Hs2st1	inactive: 0.723
GGGUGGUGUUCCAUGACAGTT against Ubp1	inactive: -0.375
GGCAAAGAAGGAGAAAGUATT against Cd209c	inactive: -0.492
GCAAAACCUACUGCGUGGATT against 2410195B05Rik	inactive: 0.682
CCAAUUACCUGAAUAAAGCTT against Epb4.1l5	inactive: 0.256
GGUUCUGGAGCAAAUCCACTT against AI326477	inactive: -0.179
GGAAAAGAAAUUUGCUGAUTT against AI313915	inactive: -0.663
GACUCAUUCUGCAAUGAAGTT against Ifna5	inactive: 0.425
GGUAUUUAAACUCUUGGGATT against Mpdu1	inactive: -0.0462

Random excerpt: three entries already listed.
Sequence	z-score
GGCUGGAGUAGAAGAACUGTT against Hsbp1	inactive: -1.87
GGGUGGUGUUCCAUGACAGTT against Ubp1	inactive: -0.375
GGUUAAAGAAGAUAAUCAGTT against Ccdc2	inactive: 0.756

Next records follow.

Sequence	z-score
GGAGAAAGCCAAAUUUAACTT against Slc17a6	inactive: 0.724
GCUAAUUCCCUGGCCUCAATT against Tro	inactive: 0.273
GGUGAAGUUGCCAAGAAAGTT against Reg3g	inactive: 0.207
GGAGUUCAUUAUCUUGGCUTT against Rsad1	inactive: 0.813
GGUUGGUGUAUUCUGGCAGTT against 5031400M07Rik	inactive: -0.0226
GGCUCCAGUCCGUUUUGAATT against Nrarp	inactive: 0.521
GGUACUGCCAUGUAGGAAATT against A330008L17Rik	inactive: -0.618
GGCAGACCCAUAAUUAAUCTT against 2810429K17Rik	inactive: 1.15
GCUUCAUCUCCUAAAGCCCTT against Ring1	inactive: 0.164
GCAUUAAAGUGCUGUUCUUTT against 4930527D15Rik	inactive: 1.08
CCUCACCAAACCUUGUUGATT against Cd300lg	inactive: 0.00582
GGAAGACCCACAAAGGCUUTT against Rpl3l	inactive: -0.901
CCAAGUGGUACGACCAUGATT against Gcnt3	inactive: -1.45
GGAUUUUGUUCCUCAAGAUTT against Pip5k2a	inactive: 0.306
GGUACUAAACACCAACUCCTT against B230315M08Rik	active: 1.28
GGAGAGUACAAGGUAUCUUTT against Map3k7ip2	inactive: -0.967
GGGCAAUCGACUGAGAAUUTT against A530050P17Rik	inactive: -1.87
CCGAAUUAAGAAAGUGGUUTT against Ap1g1	inactive: 0.917
CGAAAAUAUGGAUACUACUTT against 1810043M15Rik	inactive: 0.607
GCUCAUAAAGCUGUAUAAATT against Zik1	inactive: -0.513
GCGCGACCUUCGAAUGUAATT against Rnf5	inactive: -1.97
GCGAUUACUGGAGAUAGAGTT against U2af1-rs1	inactive: 1.08
GGCCAUGCUGAAAGUAUUUTT against Olfr561	inactive: -0.231
GGAUUUACAUUCUCAUUGUTT against Olfr995	inactive: -0.397
CGUAUUCCCUAGUUUCAGATT against Kirl2	inactive: 0.791
GCACAGCUAAACUUAACUATT against Taz	inactive: 0.0413

Individual results from the list.
In z-score, GGCAGACCCAUAAUUAAUCTT against 2810429K17Rik has inactive: 1.15
In z-score, GGUGAAGUUGCCAAGAAAGTT against Reg3g has inactive: 0.207
In z-score, GGCAUCCAAGCAAAAUGGCTT against Eng has inactive: 2.09

Next part.

Sequence	z-score
GGCAAAAUUUUAUAAGCUGTT against Ttf1	inactive: 0.157
GGUUUUACUGUAGACCUUUTT against Hnrpa1	inactive: 0.326
GGCCAACUCACCUUUCUAGTT against D630023F18Rik	inactive: 0.77
GGCAGUAUAAUUCGUUGUATT against 2610528A15Rik	inactive: 0.464
GGCAGUGAGAGUCACAAGATT against Cdipt	inactive: -0.608
GGAGGACAGUAGGUGGCAATT against Clp1	inactive: -2.09
GGAGCACAUGCUGAAGGAUTT against BC037006	inactive: -1.38
CGAUCUGUGCAACAUCCUGTT against Trik	inactive: -0.708
GCCUAACUAUGAAACUUCGTT against Ppp1r11	inactive: -1.24
GGCCUUCAGUCAAAUGGGATT against 4921536K21Rik	inactive: -0.0582
GGGAGAACUCCUGAUUGACTT against Nnmt	inactive: 0.549
CGUUCAGGAAACUACAAAATT against Mto1	inactive: -0.384
GCUCAUUGGGAUCAUUGGUTT against Fancd2	inactive: -1.65
GCCAGAUCGCUAAAAUCGUTT against 2410166I05Rik	inactive: 0.194
GCUAAAAGAUCAUUGGAGUTT against Ear10	inactive: 1.24
GGGUGUCUUCAACAAGUACTT against Dnttip1	inactive: -3.43
GGUGUUCAAAAAGUUUAACTT against Zswim1	inactive: 0.276
GGAAUCUACCACUUGGUUCTT against Chrdl2	inactive: 0.342
GGUGUCUUUAUUUAAUAGGTT against Ccng2	inactive: 0.0417
GGGCUUCGGGUUAAGAAGGTT against Tnfrsf5	inactive: -0.773
GCUCUUGGCAAGGACAAUUTT against A830019P07Rik	inactive: -1.58
GGGAUCAAGUGUUUCGCUGTT against Apbb1	inactive: 0.53
GCUCGUUUGUGUAUAAGGATT against 4930503L19Rik	inactive: -0.122
GGAAAAACAGUGCAGAUGGTT against 4931400A14Rik	inactive: -0.824
GGCCGAUGUUUAUUCUUUUTT against 4921513O20Rik	inactive: 0.00235
